Test results as given in publication PMC12040169 (PLOS Biology, 2025).
Some of the results follow.

system: T1, CTL2-GFP (C. trachomatis L2/434/Bu, GFP-expressing); design: species or system HeLa; Intracellular C. trachomatis growth in HeLa cells, bulk GFP fluorescence relative to DMSO; settings: bulk GFP, single well; 28.5 h, 10 µM; inhibitor
T1 construct: L2/434/Bu, GFP-expressing

Row | Structure (SMILES) | % of control remaining [%]
1 | Cc1ccc(Nc2cc(-c3cc4ccccc4o3)ncn2)cc1NS(C)(=O)=O [CBK091148] | 55.3241
2 | O=C(OCc1ccccc1)N1CCC(C2OCc3cc(-c4ccc(C(=O)N5CCCC5)cc4)ccc3O2)CC1 (centres unmarked) [CBK153260] | 137.565
3 | Cc1c(CNCCN2CCN(C)CC2c2ccccc2)cnn1C (centres unmarked) [CBK304056] | 144.431
4 | Cn1c(=O)[nH]c(=O)c2c1nc(CN1CCOCC1)n2Cc1ccc(F)cc1 [CBK270040] | 147.343
5 | CC(C)(C)C1CCc2c(sc(NC(=O)CCC(=O)O)c2C(=O)Nc2ccccc2C(F)(F)F)C1 (centres unmarked) [CBK264143] | 132.168
6 | CC(C)c1noc([C@@H]2C[C@H](NS(=O)(=O)c3ccc(F)cc3)CN2C)n1 [CBK288864] | 133.369
7 | CCN(CCc1nc2cc(OC)ccc2[nH]1)C(=O)c1ccc(=O)n(C)n1 [CBK307712] | 141.317
8 | CCCCNC(=O)NC(=O)C1CCN(CCCOc2ccccc2)CC1 [CBK035198] | 78.4878
9 | COc1ccc(N2CCN(CC(=O)N3c4ccccc4Sc4ccccc43)CC2)cc1 [CBK269398] | 118.941
10 | Cc1ccc(-n2c(SCC(=O)Nc3ccc(C)c([N+](=O)[O-])c3)nnc2-c2ccccc2O)c(C)c1 [CBK268769] | 100.916
11 | O=C(NC1Cc2ccccc2C1)c1cncnc1 [CBK200262] | 98.0291
12 | NC(=O)c1cc([N+](=O)[O-])ccc1NCCN1C(=O)c2ccc(C(=O)O)cc2C1=O [CBK264444] | 130.444
13 | CC(C)C[C@H]1NC(=O)C2(C/C=C/C[C@@H]3COCC[C@@H]3NC1=O)CCN(C(=O)[C@@H](N)Cc1c[nH]c3ccccc13)CC2 [CBK292200] | 112.552
14 | C/C(CCS(=O)(=O)c1ccc(Br)cc1)=N\NC(N)=S [CBK261370] | 58.6754
15 | O=C(Nc1cccc(Cl)c1)Nc1ccccc1NC(=O)Nc1cccc(Cl)c1 [CBK267624] | 119.06
16 | CCOC(=O)N1CCN(CCCCc2ccc(F)cc2)CC1 [CBK025002C] | 150.076
17 | O=C(Nc1cc(Cl)ccc1Cl)c1ncn[nH]1 [CBK028834] | 134.649
18 | Cc1ccc(OCc2nc(C#N)c(NCCCN3CCOCC3)o2)cc1 [CBK266423] | 121.66
19 | O=C(O)Cc1ccc(NC(=O)CN2C(=O)c3ccccc3C2=O)cc1 [CBK268562] | 150.314
20 | FC(F)(F)c1cc(-c2cn3ccnc3c(NCCc3cccnc3)n2)cc(C(F)(F)F)c1 [CBK066146] | 113.571
21 | CCOc1ccc2ccccc2c1CNCc1cccnc1 [CBK269934C] | 164.717
22 | O=C(CN1CCN(c2nc3cc(Cl)ccc3s2)CC1)c1ccc2c(c1)OCCCO2 [CBK074737] | 92.7174
23 | COc1ccc(/C=C/C(=O)O)cc1S(=O)(=O)N1CCCCCC1 [CBK263565] | 100
24 | Cc1noc(C)c1S(=O)(=O)Nc1ccnn1C [CBK062073] | 95.6348
25 | Cc1n[nH]c(C)c1CNC(=O)c1cc2ccc(F)cc2[nH]1 [CBK283147] | 110.399
26 | Cc1cc2cn([C@H]3C[C@@H](O)[C@@H](CO)O3)c(=O)nc2[nH]1 [CBK201302] | 132.658

Part of the list above, with tabs.
Row	Structure (SMILES)	% of control remaining [%]
12	NC(=O)c1cc([N+](=O)[O-])ccc1NCCN1C(=O)c2ccc(C(=O)O)cc2C1=O [CBK264444]	130.444
23	COc1ccc(/C=C/C(=O)O)cc1S(=O)(=O)N1CCCCCC1 [CBK263565]	100

The list goes on:

Row | Structure (SMILES) | % of control remaining [%]
27 | COc1ccnc(N2CCc3c(ncn3C3CC3)C2)n1 [CBK304816] | 135.434
28 | O=C(Cn1ncc2ccccc2c1=O)N1CCC(c2ccccc2)C1 (centres unmarked) [CBK281843] | 120.86
29 | COc1ccc(N2CC(C(=O)Nc3ccc(C(=O)O)cc3)CC2=O)cc1 (centres unmarked) [CBK268782] | 156.909
30 | COc1ccc(C[C@@H]2NC(=O)[C@H]3CN(C(=O)Nc4cccc(OC)c4)CCN3C2=O)cc1 [CBK289617] | 114.381
31 | CC(C)C(=O)Nc1cc2cccnc2nc1-c1ccsc1 [CBK073649] | 107.924
32 | CC(C)NC(=O)Nc1ccc(C(=O)N(CCC#N)C(C)C2CC2)cc1 (centres unmarked) [CBK305312] | 110.114
33 | O=C(Nc1nc2ccccc2[nH]1)c1ccc(N2CCCS2(=O)=O)cc1 [CBK304582] | 97.5582
34 | O=C(O)Cc1sc(-c2ccc3c(c2)OCO3)nc1-c1ccccc1 [CBK200114] | 131.359
35 | O=C(CSc1nnc(-c2ccco2)c(-c2ccco2)n1)Nc1ccccc1[N+](=O)[O-] [CBK265762] | 148.548
36 | COc1ccc2nc(NCc3ccccc3)sc2c1 [CBK287485] | 152.364
37 | CCOC(=O)Cn1c(C)nc2ccccc21 [CBK115311] | 91.7413
38 | c1ccc(-c2nc3cc4ccccc4cc3[nH]2)nc1 [CBK000130] | 22.5821
39 | Cc1ccc(CNCc2cc3c(C)nn(-c4ccccc4)c3[nH]c2=O)o1 [CBK282896] | 124.798
40 | CC1(C)C(=O)Nc2ccccc2N1C(=O)COc1ncnc2sc3c(c12)CCC3 [CBK297530] | 101.233
41 | O=C1NCCN1CCOc1nccnc1-c1cnn(Cc2ccccc2)c1 [CBK107094] | 188.38
42 | Cc1nc2cccnc2n1C1CCN(C(=O)C(C)(C)C)CC1 [CBK282426] | 116.711
43 | Cc1ccccc1CNC(=O)CCc1c(C)nc2nc(N)nn2c1C [CBK304987] | 140.698
44 | Fc1cccc(-c2nc3c(s2)CN(C2CCOCC2)CC3)c1 [CBK281647] | 132.933
45 | O=C(CNS(=O)(=O)c1ccc(Br)cc1)NCc1cccnc1 [CBK266295] | 182.89
46 | CCn1nc(C)c(NC(=O)CN(C)Cc2ccccc2C(F)(F)F)c1C [CBK306771] | 102.571
47 | CC(=O)OCc1c(C)cc(C)c(CN(C)C(C)c2ccon2)c1C (centres unmarked) [CBK306780] | 191.479
48 | O=C(CCCC1CC1)N1CCn2c(nnc2-c2cncc(Br)c2)C1 [CBK304767] | 119.829
49 | CCc1noc(C)c1C(=O)Nc1cc(S(=O)(=O)N2CCCCC2)ccc1N(C)C [CBK295328] | 143.589
50 | O=C(CC(CN1CCN(Cc2ccccn2)CC1)C(=O)O)Nc1ccc(F)cc1 (centres unmarked) [CBK286800] | 132.307
51 | O=c1[nH]ccn2nc(-c3ccc4c(c3)OCO4)cc12 [CBK288048] | 125.29
52 | NC(=O)CC1C=CS(=O)(=O)C1 (centres unmarked) [CBK019653] | 139.423

Taken from above.
% of control remaining [%] with Fc1cccc(-c2nc3c(s2)CN(C2CCOCC2)CC3)c1 [CBK281647] reads 132.933
% of control remaining [%] with CCc1noc(C)c1C(=O)Nc1cc(S(=O)(=O)N2CCCCC2)ccc1N(C)C [CBK295328] reads 143.589

Going on with the list.

Row | Structure (SMILES) | % of control remaining [%]
53 | Cc1ccc(-c2cc(C(=O)N3CCN(C4CCS(=O)(=O)C4)CC3)c3ccccc3n2)cc1 (centres unmarked) [CBK297153] | 93.7576
54 | COc1nnc(-c2ccc(N3CCOCC3)c(NC(=O)COc3ccc(C)cc3)c2)c2ccccc12 [CBK266103] | 175.356
55 | COc1ccc(S(=O)(=O)N2CCN(C(=O)c3ccco3)CC2)c2ccccc12 [CBK269839] | 134.42
56 | O=C(NCCNC(=O)c1ccccn1)c1cccc(F)c1 [CBK269613] | 134.813
57 | COc1ccc(C(=O)C(C)OC(=O)c2ccc3ccccc3n2)cc1 (centres unmarked) [CBK111937] | 99.5326
58 | CNC(=O)C1(Cc2ccccc2-c2cccs2)CCN(C(=O)c2cccc(OC)c2)CC1 [CBK285907] | 106.126
59 | CCSc1nc(N)c(NC(=O)c2ccco2)c(=O)[nH]1 [CBK287613] | 127.227
60 | Cc1ccc(N(CC(O)CNC23CC4CC(CC(C4)C2)C3)S(=O)(=O)c2ccccc2)cc1 (centres unmarked) [CBK264741] | 87.1292
61 | Cc1ccccc1C(=O)N1CCN(Cc2cc(=O)n3ccsc3n2)CC1 [CBK304595] | 135.65
62 | Cc1c(Cl)cccc1NC(=S)/N=C(\N)Nc1nc(C)c2ccccc2n1 [CBK268866] | 95.8367
63 | CC(=O)N1CC2(CCN(C(=O)c3ccco3)CC2)Nc2ccccc21 [CBK284447] | 109.079
64 | CCOC(=O)N1CCN(C(=O)C2CC=CCC2C(=O)O)CC1 (centres unmarked) [CBK266142] | 140.867
65 | COc1cc(CNC2CCCc3c2cnn3C)c(O)c(C(C)(C)C)c1 (centres unmarked) [CBK304716] | 102.935
66 | CCCC/C=C\c1nccnc1OCCn1cccc1 [CBK106891] | 153.801
67 | COc1ccc(OCCCOc2ccccc2C(C)C)cc1 [CBK026366] | 122.062
68 | CC(C)(O)C(=O)NCc1nc2c(s1)CC(c1ccccc1)CC2 (centres unmarked) [CBK304165] | 126.366
69 | O=C(CCCc1c[nH]c2ccccc12)N1CCn2c(nnc2C2CC2)C1 [CBK283689] | 142.863
70 | COc1ccc(-c2noc([C@@H]3C[C@@H](O)CN3Cc3cccc(C#N)c3)n2)cc1 [CBK288843] | 129.619
71 | COc1ccc([C@@H]2CN(C(=O)c3ccccc3)[C@H]3CCN(Cc4ccc(F)cc4)C[C@@H]23)cc1 [CBK285581] | 50.4847
72 | Cc1cc(COc2cc(N3CCCNCC3)ncn2)no1 [CBK085462] | 137.917
73 | CC(C)CNc1nccnc1-c1ccc2c(c1)OCO2 [CBK088730] | 97.9763
74 | Cc1ccc(NC(=O)N(Cc2ccc3ccccc3c2)CC2CCNCC2)cc1[N+](=O)[O-] [CBK049771] | 89.3185
75 | CC(=O)Oc1ccc2c(=O)c(C3NC(C(=O)O)Cc4c3[nH]c3ccccc43)coc2c1 (centres unmarked) [CBK293948] | 90.9612
76 | CC(C)(C)Nc1c(C2CCN(C(=O)C3CC3)CC2)nc2ccccn12 [CBK284787] | 91.6216
77 | O=C(Cc1cccnc1)N1Cc2ccccc2C1 [CBK200320] | 179.357
